Test results reported in the supplement of paper PMC12819154, “High-throughput peptide-centric local stability assay extends protein–ligand identification to membrane proteins, tissues and bacteria” (Nature Structural & Molecular Biology, 2025).
The list shows a part of the results. Small differences around the control level are noise.

Amino acid sequences for entries named in this document (tags omitted). A change or cut given only in a name is not applied to a line headed by its entry.
UniProt Q8NF64: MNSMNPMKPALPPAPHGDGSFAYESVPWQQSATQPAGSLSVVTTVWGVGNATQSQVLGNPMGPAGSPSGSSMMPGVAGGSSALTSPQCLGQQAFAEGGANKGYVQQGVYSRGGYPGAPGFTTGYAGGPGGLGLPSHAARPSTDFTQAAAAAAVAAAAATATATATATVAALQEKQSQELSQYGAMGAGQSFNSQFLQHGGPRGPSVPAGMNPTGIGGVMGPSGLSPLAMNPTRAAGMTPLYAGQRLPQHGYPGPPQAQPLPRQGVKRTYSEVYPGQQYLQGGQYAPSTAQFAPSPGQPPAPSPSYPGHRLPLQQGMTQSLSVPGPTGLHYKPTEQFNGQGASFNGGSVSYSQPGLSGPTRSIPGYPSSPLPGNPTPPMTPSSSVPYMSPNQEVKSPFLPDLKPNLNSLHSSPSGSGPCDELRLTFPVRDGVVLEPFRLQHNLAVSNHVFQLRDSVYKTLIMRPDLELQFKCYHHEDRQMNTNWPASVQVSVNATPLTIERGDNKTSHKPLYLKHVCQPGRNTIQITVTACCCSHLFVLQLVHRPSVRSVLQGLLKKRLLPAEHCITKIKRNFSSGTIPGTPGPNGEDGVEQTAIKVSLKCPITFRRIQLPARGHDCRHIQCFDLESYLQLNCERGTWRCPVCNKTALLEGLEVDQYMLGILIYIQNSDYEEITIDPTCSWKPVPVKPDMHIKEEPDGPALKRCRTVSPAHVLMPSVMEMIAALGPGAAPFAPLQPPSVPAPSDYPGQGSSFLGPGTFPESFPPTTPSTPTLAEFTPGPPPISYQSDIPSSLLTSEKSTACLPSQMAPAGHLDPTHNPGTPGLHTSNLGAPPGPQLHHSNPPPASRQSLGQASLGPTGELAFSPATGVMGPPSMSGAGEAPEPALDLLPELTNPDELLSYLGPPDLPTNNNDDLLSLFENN
UniProt Q8NER1, whole entry: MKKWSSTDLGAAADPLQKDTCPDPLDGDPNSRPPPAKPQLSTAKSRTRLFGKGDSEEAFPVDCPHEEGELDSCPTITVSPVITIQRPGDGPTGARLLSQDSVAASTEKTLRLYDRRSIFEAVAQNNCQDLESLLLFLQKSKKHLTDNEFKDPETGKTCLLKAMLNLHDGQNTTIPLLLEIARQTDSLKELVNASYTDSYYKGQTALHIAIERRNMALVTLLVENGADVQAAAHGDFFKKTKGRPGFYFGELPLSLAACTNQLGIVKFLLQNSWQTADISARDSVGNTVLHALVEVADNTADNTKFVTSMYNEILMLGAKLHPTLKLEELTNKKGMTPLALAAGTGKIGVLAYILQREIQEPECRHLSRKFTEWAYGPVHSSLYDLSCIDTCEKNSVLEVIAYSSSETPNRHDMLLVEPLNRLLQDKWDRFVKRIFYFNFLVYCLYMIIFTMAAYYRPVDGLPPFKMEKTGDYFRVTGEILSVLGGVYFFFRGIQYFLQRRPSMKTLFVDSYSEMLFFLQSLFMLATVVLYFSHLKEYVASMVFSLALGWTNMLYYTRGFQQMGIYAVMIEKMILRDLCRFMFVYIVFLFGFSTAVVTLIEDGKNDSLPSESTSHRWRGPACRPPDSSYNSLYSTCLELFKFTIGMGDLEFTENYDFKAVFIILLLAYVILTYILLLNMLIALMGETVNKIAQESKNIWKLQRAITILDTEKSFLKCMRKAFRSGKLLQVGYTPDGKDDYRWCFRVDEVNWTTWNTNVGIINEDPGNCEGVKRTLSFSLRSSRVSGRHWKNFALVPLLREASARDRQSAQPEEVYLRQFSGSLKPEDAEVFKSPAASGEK
UniProt Q8NB91: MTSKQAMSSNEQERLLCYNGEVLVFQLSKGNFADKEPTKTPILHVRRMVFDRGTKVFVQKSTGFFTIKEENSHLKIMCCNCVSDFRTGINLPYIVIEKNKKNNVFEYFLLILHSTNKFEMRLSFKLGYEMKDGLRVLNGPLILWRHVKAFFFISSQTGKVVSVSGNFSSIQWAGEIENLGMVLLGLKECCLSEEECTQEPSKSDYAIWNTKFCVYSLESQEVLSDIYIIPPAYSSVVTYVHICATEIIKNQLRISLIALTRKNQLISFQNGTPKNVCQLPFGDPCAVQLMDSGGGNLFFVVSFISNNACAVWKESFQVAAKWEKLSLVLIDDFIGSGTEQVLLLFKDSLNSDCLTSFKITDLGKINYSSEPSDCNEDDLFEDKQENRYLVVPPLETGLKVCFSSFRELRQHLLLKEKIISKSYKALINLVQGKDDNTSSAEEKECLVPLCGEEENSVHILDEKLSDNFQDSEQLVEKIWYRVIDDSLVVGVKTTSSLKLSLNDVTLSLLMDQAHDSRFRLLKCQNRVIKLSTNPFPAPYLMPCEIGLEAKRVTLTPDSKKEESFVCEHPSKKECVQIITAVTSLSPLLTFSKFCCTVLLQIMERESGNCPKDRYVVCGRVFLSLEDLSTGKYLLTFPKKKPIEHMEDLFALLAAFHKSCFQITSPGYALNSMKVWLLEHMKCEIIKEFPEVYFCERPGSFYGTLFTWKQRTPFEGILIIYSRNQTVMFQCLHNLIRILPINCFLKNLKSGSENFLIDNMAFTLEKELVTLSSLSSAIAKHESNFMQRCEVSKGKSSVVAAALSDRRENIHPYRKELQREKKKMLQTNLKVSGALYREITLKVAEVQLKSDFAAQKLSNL
UniProt Q8TBB1: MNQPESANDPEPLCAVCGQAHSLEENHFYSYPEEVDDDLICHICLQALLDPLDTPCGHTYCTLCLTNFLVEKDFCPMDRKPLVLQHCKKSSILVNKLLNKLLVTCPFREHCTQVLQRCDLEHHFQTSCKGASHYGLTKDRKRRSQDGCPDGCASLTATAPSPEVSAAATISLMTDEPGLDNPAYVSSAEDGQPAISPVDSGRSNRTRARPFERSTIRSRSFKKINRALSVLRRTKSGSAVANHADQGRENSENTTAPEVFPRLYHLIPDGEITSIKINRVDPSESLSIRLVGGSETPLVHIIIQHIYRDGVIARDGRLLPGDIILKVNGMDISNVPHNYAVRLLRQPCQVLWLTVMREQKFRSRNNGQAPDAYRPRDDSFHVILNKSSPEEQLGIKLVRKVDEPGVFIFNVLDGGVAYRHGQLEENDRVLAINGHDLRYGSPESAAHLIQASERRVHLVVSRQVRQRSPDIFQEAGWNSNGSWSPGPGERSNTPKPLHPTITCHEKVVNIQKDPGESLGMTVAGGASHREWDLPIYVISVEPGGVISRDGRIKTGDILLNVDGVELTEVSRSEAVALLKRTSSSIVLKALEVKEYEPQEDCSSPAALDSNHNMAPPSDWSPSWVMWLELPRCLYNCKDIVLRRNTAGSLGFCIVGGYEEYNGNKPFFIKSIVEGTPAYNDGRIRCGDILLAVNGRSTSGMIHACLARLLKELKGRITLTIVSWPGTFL
UniProt Q8NDX6: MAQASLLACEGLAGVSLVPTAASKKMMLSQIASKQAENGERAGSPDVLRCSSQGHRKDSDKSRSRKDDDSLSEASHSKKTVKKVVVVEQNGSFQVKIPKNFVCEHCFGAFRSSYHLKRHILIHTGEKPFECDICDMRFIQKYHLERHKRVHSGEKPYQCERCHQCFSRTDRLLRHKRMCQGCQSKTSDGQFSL
UniProt Q8NBF6: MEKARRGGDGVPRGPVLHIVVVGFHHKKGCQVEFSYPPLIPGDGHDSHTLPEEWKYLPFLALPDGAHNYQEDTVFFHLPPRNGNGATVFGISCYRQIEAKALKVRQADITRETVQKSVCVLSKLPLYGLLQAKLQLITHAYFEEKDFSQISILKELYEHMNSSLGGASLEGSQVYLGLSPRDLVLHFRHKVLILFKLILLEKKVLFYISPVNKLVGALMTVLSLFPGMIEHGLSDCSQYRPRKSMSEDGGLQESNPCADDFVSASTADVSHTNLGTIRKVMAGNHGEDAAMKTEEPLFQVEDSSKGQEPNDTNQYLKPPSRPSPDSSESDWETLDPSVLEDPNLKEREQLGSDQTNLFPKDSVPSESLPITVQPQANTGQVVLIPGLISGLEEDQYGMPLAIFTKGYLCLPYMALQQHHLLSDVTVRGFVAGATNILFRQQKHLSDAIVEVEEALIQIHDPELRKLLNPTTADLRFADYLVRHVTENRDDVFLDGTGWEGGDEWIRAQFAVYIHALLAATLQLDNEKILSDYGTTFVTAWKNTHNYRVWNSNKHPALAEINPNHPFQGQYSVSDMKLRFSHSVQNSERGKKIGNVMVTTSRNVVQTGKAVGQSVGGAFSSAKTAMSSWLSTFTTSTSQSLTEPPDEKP
UniProt Q8NB78: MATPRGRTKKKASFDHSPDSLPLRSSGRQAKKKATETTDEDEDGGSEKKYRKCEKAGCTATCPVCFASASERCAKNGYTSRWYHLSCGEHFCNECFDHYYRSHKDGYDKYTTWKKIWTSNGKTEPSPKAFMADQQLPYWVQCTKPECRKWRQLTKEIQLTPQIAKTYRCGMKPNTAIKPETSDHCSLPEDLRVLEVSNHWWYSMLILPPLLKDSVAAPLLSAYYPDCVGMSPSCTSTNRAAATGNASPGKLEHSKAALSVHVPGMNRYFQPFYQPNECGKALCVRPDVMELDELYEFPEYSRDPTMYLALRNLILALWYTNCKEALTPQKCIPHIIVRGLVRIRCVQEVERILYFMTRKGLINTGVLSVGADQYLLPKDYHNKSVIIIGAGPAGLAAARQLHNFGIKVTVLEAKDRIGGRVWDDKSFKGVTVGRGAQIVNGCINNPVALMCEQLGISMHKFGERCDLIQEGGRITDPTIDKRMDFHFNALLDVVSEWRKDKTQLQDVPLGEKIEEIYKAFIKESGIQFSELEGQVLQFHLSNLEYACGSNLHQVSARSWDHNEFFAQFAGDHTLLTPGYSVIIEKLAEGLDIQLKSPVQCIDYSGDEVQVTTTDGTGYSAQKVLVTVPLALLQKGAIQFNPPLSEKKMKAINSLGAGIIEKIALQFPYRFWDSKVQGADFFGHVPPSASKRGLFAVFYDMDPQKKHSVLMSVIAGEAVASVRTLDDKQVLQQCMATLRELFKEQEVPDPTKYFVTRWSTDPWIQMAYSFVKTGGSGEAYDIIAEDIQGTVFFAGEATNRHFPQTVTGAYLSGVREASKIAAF
UniProt Q8NBS9: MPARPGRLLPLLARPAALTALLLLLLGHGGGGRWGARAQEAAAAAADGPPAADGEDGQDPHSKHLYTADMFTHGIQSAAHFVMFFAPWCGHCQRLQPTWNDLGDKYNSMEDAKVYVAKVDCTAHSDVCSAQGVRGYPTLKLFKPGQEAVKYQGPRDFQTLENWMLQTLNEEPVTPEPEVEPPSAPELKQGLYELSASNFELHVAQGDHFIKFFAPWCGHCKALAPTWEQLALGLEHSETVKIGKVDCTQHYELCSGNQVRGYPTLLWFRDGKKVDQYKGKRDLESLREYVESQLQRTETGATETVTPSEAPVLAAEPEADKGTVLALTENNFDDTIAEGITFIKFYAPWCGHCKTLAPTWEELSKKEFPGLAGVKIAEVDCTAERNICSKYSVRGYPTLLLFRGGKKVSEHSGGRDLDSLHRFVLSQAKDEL

What follows are targets tested with CN[C@@H]1C[C@H]2O[C@@](C)([C@@H]1OC)n1c3ccccc3c3c4c(c5c6ccccc6n2c5c31)C(=O)NC4 [staurosporine] (assay: log2 fold change of tryptic peptide abundance, ligand vs vehicle (limited proteolysis) (log2 ratio); higher = more trypsin-susceptible (destabilized)). Conditions: ligand concentration: 20 uM; sample: K562 cleared lysate; digestion: 4 min, 22 C (HT-PELSA RT4min, Orbitrap Astral).

Row | Target | log2 fold change
1 | ZMIZ2 (peptide sequence: GYVQQGVYSR, peptide start residue: 102) (UniProt Q8NF64) | 0.106
2 | UniProt Q8NER1 (peptide sequence: AITILDTEKSFLKCMR, peptide start residue: 703) | 0.198
3 | SMARCC2 (peptide sequence: MDRNVEMFMTIEK, peptide start residue: 117) (UniProt Q8TAQ2) | 0.667
4 | FANCB (peptide sequence: ENIHPYRK, peptide start residue: 807) (UniProt Q8NB91) | 0.624
5 | LNX1 (peptide sequence: NNGQAPDAYRPR, peptide start residue: 365) (UniProt Q8TBB1) | -0.182
6 | ZNF740 (peptide sequence: NFVCEHCFGAFR, peptide start residue: 100) (UniProt Q8NDX6) | -0.155
7 | AVL9 (peptide sequence: FSHSVQNSER, peptide start residue: 579) (UniProt Q8NBF6) | 0.174
8 | UniProt Q8NB78 (peptide sequence: AAATGNASPGKLEHSK, peptide start residue: 240) | 0.256
9 | TXNDC5 (peptide sequence: QGLYELSASNFELHVAQGDHFIK, peptide start residue: 189) (UniProt Q8NBS9) | 0.61
10 | MRPL50 (peptide sequence: EKEPVVVETVEEK, peptide start residue: 33) (UniProt Q8N5N7) | -0.134
